Test results: article PMC5521794, “Understanding Russell’s viper venom factor V activator’s substrate specificity by surface plasmon resonance and in-silico studies” (PLoS ONE, 2017)
These are yes or no findings as the source states them, for the method shown.

Molecular target: Russell's viper venom factor V activator (Russell's viper)
Assay: SPR; Biacore T200; RVV-V immobilised on a CM5 chip by amine coupling (3000 RU); peptides flowed over at 62.5 uM to 1 mM in PBS, 30 ul/min; association 120 s, dissociation 300 s; regeneration 10 mM glycine pH 2.5; two-state binding model; both purified

B1: Peptide I (factor V cleavage site I, Gln699-Asn713) (peptide)
peptide: QNGLAAALGIRSFGN
binding: no binding (tested: 62.5 uM to 1 mM)
